Results from patent US20120231007A1, “MODULATORS OF CELL CYCLE PROGRESSION” (SINGAPORE HEALTH SERVICES PTE. LTD., priority 2009, published 2012).
These are yes or no findings as the source states them, for the method shown. In cells and extracts the contact can be indirect. Some results given as binding are weak or reduced against the parent protein; the word gives no strength.

Sequences of proteins named here, by UniProt entry; tags and fusion partners are left off. Residues count along the entry.
UniProt P61586, residues 1-190: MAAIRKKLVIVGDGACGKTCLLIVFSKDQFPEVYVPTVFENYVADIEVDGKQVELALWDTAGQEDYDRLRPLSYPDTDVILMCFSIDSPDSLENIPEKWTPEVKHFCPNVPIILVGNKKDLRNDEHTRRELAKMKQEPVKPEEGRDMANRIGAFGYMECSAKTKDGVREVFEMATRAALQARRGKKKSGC

What was measured:
activated RhoA (human) [1] = target: activated RhoA (human) (UniProt P61586); assay: Rhotekin RBD pull-down from glioma cell lysate, immunoblot for Ect2 and RhoA
activated RhoA (human) [2] = target: activated RhoA (human) (UniProt P61586); assay: Rhotekin RBD pull-down from glioma cell lysate, immunoblot (summary of the study)

B1: Epithelial cell transforming sequence 2 (Ect2), full-length human (protein)
chain: AENSVLTSTTGRTSLADSSIFDSKVTEISKENLLIGSTSYVEEEMPQIETRVILVQEAGKQEELIKALKDIKVGFVKMESVEEFEGLDSPEFENVFVVTDFQDSVFNDLYKADCRVIGPPVVLNCSQKGEPLPFSCRPLYCTSMMNLVLCFTGFRKKEELVRLVTLVHHMGGVIRKDFNSKVTHLVANCTQGEKFRVAVSLGTPIMKPEWIYKAWERRNEQDFYAAVDDFRNEFKVPPFQDCILSFLGFSDEEKTNMEEMTEMQGGKYLPLGDERCTHLVVEENIVKDLPFEPSKKLYVVKQEWFWGSIQMDARAGETMYLYEKANTPELKKSVSMLSLNTPNSNRKRRRLKETLAQLSRETDVSPFPPRKRPSAEHSLSIGSLLDISNTPESSINYGDTPKSCTKSSKSSTPVPSKQSARWQVAKELYQTESNYVNILATIIQLFQVPLEEEGQRGGPILAPEEIKTIFGSIPDIFDVHTKIKDDLEDLIVNWDESKSIGDIFLKYSKDLVKTYPPFVNFFEMSKETIIKCEKQKPRFHAFLKINQAKPECGRQSLVELLIRPVQRLPSVALLLNDLKKHTADENPDKSTLEKAIGSLKEVMTHINEDKRKTEAQKQIFDVVYEVDGCPANLLSSHRSLVQRVETISLGEHPCDRGEQVTLFLFNDCLEIARKRHKVIGTFRSPHGQTRPPASLKHIHLMPLSQIKKVLDIRETEDCHNAFALLVRPPTEQANVLLSFQMTSDELPKENWLKMLCRHVANTICKADAENLIYTADPESFEVNTKDMDSTLSRASRAIKKTSKKVTRAFSFSKTPKRALRRALMTSHGSVEGRSPSSNDKHVMSRLSSTSSLAGIPSPSLVSLPSFFERRSHTLSRSTTHLI
In the case of B1, the binding (activated RhoA (human) [1]) is reported as “binds” and the binding (activated RhoA (human) [2]) is reported as “binds”.
